## Primary screen of a compound library

Data taken from ChEMBL document CHEMBL3988442, “University of Dundee, Small-Polar-MMV Screening Library” (2021).

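Assay of Toxoplasma gondii numbers, read through their beta-galactosidase reporter with a colour substrate. Tested at 10 µM. Higher reads as fewer parasites (inferred from which compounds were picked for retests). Size under these conditions: about 67,000 compounds, about 260 of them at 50% or above in at least one test.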

Values are the deposited “Percent Effect”, in %.
The controls that fix the scale are not given in the record; negative values are as filed.
The compounds are a random part of those screened.

- Cc1nnc(CN2CCCC2c2ccc(C(C)(C)C)cc2)o1 (stereo unspecified) | 3.85%
- Cc1ccc(C(=O)N2CCC3(CC2)CC(N2CCOCC2)C3)cc1.O=C(O)C(F)(F)F | 1.901%
- O=C(C1CC2(CCNCC2)CN1)N1CCN(c2ccccc2)CC1 (stereo unspecified) | 12.28%
- COc1ccc(C(=O)CNC(=O)c2nc(Cl)sc2C(C)C)cc1 | 18.25%
- Cc1cccc(CN2CCc3nnc(CN4CCCCC4)n3CC2)n1.O=C(O)C(F)(F)F.O=C(O)C(F)(F)F | 48.04%
- CCn1ccnc1CN1CCOC(CNc2cccnn2)C1 (stereo unspecified) | 4.235%
- Cc1cccc(COc2ccc(C(C)NC(=O)CNC(N)=O)cc2)c1 (stereo unspecified) | -0.2547%
- Cc1ccc(-c2nc(CNS(=O)(=O)N(C)C)[nH]c2-c2ccccn2)cc1 | -32.24%
- CCOCCSc1nnc(-c2cn(CC)nc2OCC)n1C | 1.645%
- N#Cc1ccc(N2CCCC3(CCN(c4cncnc4)C3=O)C2)nc1.O=C(O)C(F)(F)F (stereo unspecified) | -2.406%
- CNC(=O)c1ccc(Cn2ccnc2S(C)(=O)=O)cc1 | 1.655%
- Cc1noc(CN(C)Cc2cnc(N3CCOCC3)nc2)n1 | -2.728%
- Cn1cc(CNc2nc3cc(Cl)ccc3n2C)cn1 | -19.48%
- CCC(CO)N(Cc1ccc(F)cc1)Cc1c(C)nn(C)c1Cl (stereo unspecified) | -2.904%
- Cc1nc(Nc2ccccn2)cc(C2CCCN2C2CCOCC2)n1 (stereo unspecified) | 0.6786%
- CCc1ncc(C(=O)N(C)CC2Cc3ccccc3O2)cn1 (stereo unspecified) | -1.112%
- O=C(Cc1cccc(O)c1)N1CCCC(O)(CN2CCCC2)CC1 (stereo unspecified) | 2.196%
- CC(C)c1nc(CN(C)Cc2ccc(O)c(Cl)c2)cs1 | -3.604%
- CCCN(Cc1cnn(C)c1)S(=O)(=O)c1cccc(F)c1C#N | 13.08%
- Cn1nnc2c1CCN(C(=O)C1CCC1)C2COCCN1CCCC1.O=C(O)C(F)(F)F (stereo unspecified) | 6.986%
- O=C1NCCCc2c1oc1ccc(O)c(CN3CCOCC3)c21 | 11.81%
- Cc1cc(C(=O)N2CCc3c(ncn3CCc3ccccc3)C2)on1 | -1.491%
- Cc1nn2c(N3CCS(=O)(=O)CC3)cc(-c3ccccc3)nc2c1C | 11.67%
- Cc1occc1C(=O)N1CCCC2(CCN(c3ccsc3)C2=O)C1 (stereo unspecified) | 6.375%
- COc1ccccc1OC1(C(=O)O)CCN(c2ccccn2)CC1 | -6.874%
- CC(=O)N1CCC(NC(=O)c2ccccc2-n2cnnn2)CC1 | 6.986%
- CNc1cc(-c2cc(OC)c(OC)c(OC)c2)ncn1 | 5.927%
- Cc1nnc(NC(=O)NC(C)C(=O)NC2CCCC2)s1 (stereo unspecified) | -13.83%
- CN1CCC(N2CC[C@H](c3nc4ccc(C(F)(F)F)cc4[nH]3)C2)CC1 | 15.16%
- CCOC(=O)C1CCN(Cc2csc(-c3ccc(C)o3)n2)CC1 | 8.81%
- CCc1ccc(S(=O)(=O)Nc2cn(C)cc(Br)c2=O)cc1 | -3.693%
- O=C(c1cnccn1)N1CCCC(Cc2cccc3ncccc23)C1 (stereo unspecified) | -4.797%
- [H][C@@]12CNC[C@]1([H])[C@H]2C(=O)N1CCC(Sc2ccccc2C)CC1 | 6.628%
- Cn1cc(CNCCc2cccnc2)c(-c2cccnc2)n1 | -1.741%
- O=C(NC[C@H]1OC[C@@H](NC2CCOCC2)[C@@H]1O)Nc1ccccc1 | -6.01%
- [H][C@@]12CCN(C(=O)c3cccs3)C[C@@]1([H])O[C@H](c1nnc(C3CC3)o1)C2 | 0.04156%

Repeated from the top, 3 entries:

Cc1nnc(CN2CCCC2c2ccc(C(C)(C)C)cc2)o1 (stereo unspecified) gave 3.85%.
Cc1ccc(C(=O)N2CCC3(CC2)CC(N2CCOCC2)C3)cc1.O=C(O)C(F)(F)F gave 1.901%.
O=C(C1CC2(CCNCC2)CN1)N1CCN(c2ccccc2)CC1 (stereo unspecified) gave 12.28%.